Earlier results in patent US20070043049A1, “Substituted heterocyclic diarylamine analogues” (Neurogen Corporation, priority 2003, published 2007).
Some of these results come from one statement about several compounds together. At least one compound was matched to its structure with a doubt left.

Sequences of proteins named here, by UniProt entry; tags and fusion partners are left off.
UniProt Q8NER1, whole entry: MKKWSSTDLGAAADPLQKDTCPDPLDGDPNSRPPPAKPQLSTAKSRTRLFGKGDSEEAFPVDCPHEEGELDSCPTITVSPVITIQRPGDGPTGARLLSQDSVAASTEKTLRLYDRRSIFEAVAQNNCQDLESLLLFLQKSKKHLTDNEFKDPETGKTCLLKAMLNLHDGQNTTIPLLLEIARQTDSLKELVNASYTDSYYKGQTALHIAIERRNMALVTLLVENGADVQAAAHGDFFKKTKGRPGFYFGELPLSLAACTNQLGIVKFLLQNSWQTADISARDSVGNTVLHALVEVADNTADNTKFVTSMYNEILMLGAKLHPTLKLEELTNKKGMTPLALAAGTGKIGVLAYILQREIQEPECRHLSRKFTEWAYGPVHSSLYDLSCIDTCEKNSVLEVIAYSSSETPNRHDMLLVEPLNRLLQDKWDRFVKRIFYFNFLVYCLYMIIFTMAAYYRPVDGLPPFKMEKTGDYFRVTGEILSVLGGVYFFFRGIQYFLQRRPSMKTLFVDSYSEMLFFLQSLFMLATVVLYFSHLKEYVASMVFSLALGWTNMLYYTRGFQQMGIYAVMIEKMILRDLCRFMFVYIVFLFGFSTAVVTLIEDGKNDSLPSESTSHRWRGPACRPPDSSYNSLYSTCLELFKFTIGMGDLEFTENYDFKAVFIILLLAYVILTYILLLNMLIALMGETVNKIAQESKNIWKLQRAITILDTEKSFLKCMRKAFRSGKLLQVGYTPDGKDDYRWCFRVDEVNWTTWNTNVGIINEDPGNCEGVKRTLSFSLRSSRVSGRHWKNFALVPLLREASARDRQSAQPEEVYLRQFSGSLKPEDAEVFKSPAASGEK

Target: VR (Homo sapiens, UniProt Q8NER1)
Conditions: typical values, background; cited from earlier work

Compound: Cl.Cl.Cl.Cl.Cl.Cl.N.N.N.N.N.N.N.N.N.N.N.N.N.N.[O-2].[O-2].[Ru+3].[Ru+3].[Ru+4] [ruthenium red]
- Ki: ≥ 140 µM
